Data as given in PubChem BioAssay AID652272 (Drosophila RNAi Screening Center, 2013)
The deposit covers about 21,000 reagents; this is a random part of those with a known target gene and a result. Of all reagents, 503 (2.4%) are marked active. 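Raw plate light values, not normalised; calls rest on replicate z-scores that were not deposited; hits include reporter decreases as well as increases.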 Reagents against one gene are numbered here. Not stated in the record: the amount of reagent, the time to read-out.

- Aim: 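Finding fly genes that regulate Hedgehog signal transduction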 (primary screen)
- System: Drosophila clone 8 (Cl8) cells
- Knock-down reagent: long dsRNA against Drosophila genes
- Detection: 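Firefly light from a Hedgehog-responsive ptc promoter reporter and Renilla reference light, both read on a plate reader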
- Direction: firefly Hh reporter signal: higher = more ptc reporter light; Renilla reference signal: higher = more Renilla control light
- Active means: 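Hit when the z-score averaged over two replicates is under -2 or over +3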
- Calls: active = hit: reporter lowered or raised; inactive = not a hit

no.	predicted target	dsRNA no.	firefly Hh reporter signal, replicate 1	firefly Hh reporter signal, replicate 2	firefly Hh reporter signal, replicate 3	Renilla reference signal, replicate 1	Renilla reference signal, replicate 2	call
1	CG11883	1	62083	44256		2650	1840	inactive
2	CG17681	1	1.13e5	63479		2626	5656	inactive
3	CG10628	1	71900	46752		1908	3867	inactive
4	Elp1 (Elongator complex protein 1)	1	1.18e5	82277		4964	3452	inactive
5	Arpc3B (Actin-related protein 2/3 complex, subunit 3B)	1	96336	52597		7201	2082	active
6	CG18418	1	81856	45136		3867	1974	inactive
7	CG12713	1	92343	47232		3757	1826	inactive
8	mei-P22 (meiotic P22)	1	82356	45690		10809	3811	inactive
9	Fs(2)Ket (Female sterile (2) Ketel)	1	52775	26944		2600	1478	inactive
10	jtb (jetboil)	1	76342	53648		2336	3904	inactive
11	CG33258	1	1.95e5			4985		inactive
12	CG17224	1	97529	75333		1611	6262	inactive
13	CG12818	1	75904	99472		3120	2859	inactive
14	CG8774	1	1.31e5	85569		5840	1761	inactive
15	CG34375	1	6.81e5	1.20e5		36966	3699	inactive
16	CG34375	2	4.25e5	63906		25297	2368	inactive
17	ptc (patched)	1	2.09e5	3.38e5		3472	9442	active
18	ptc (patched)	2	1.30e5	74402		2066	4928	active
19	Dlip2 (Dorsal interacting protein 2)	1	1.38e5	1.57e5		5222	4704	inactive
20	CG33225	1	1.03e5	2.41e5		2374	10896	inactive
21	Cpr47Ea (Cuticular protein 47Ea)	1	1.49e5	73600		3821	5904	inactive
22	Alh (Alhambra)	1	68520			2253		inactive
23	Alh (Alhambra)	2	57661	84931		2493	2432	inactive
24	Alh (Alhambra)	3	78237	73824		2941	2245	inactive
25	CG34296	1	57066	3.60e5		13722	7465	inactive
26	thetaTry (thetaTrypsin)	1	84773	42625		2216	3027	inactive
27	P5CS (Delta[1]-pyrroline-5-carboxylate synthase)	1	1.16e5	1.01e5		5149	3936	inactive
28	P5CS (Delta[1]-pyrroline-5-carboxylate synthase)	2	96244	92793		3402	2794	inactive
29	Eglp3 (Entomoglyceroporin 3)	1	65728	46832		1504	4139	inactive
30	l(3)neo38 (lethal (3) neo38)	1	1.52e5	5.17e5	1.49e5	3101	3344	inactive
31	l(3)neo38 (lethal (3) neo38)	2	75873	88209		2624	2368	inactive
32	CG5103	1	1.46e5			1841	3745	inactive
33	CG32985	1	98211	34509		2224	3040	inactive
34	Dop1R1 (Dopamine 1-like receptor 1)	1	30177	1.94e5		5288	3994	inactive
35	Dop1R1 (Dopamine 1-like receptor 1)	2	31739	1.64e5		5593	2288	inactive
36	Dop1R1 (Dopamine 1-like receptor 1)	3	1.05e5	1.10e5		2541	2627	inactive
37	CG32066	1	1.13e5	1.03e5		5244	3946	inactive
38	CG32066	2	67346	34456	58448	4043	4608	inactive
39	Lamp1	1	54996	58221		1288	5125	inactive
40	CG17919	1	1.06e5	68400		4256	2442	inactive
41	CG14795	1	1.05e5	1.55e5		3786	6569	inactive
42	VGAT (Vesicular GABA Transporter)	1	1.11e5	48183		2793	1351	inactive
43	Fen1 (Flap endonuclease 1)	1	79510	42780		1228	3581	inactive
44	CG11854	1	4.71e5	99360		25116	2502	inactive
45	Cndp2 (Cytosolic non-specific dipeptidase 2)	1	61281	77051		1653	5189	inactive
46	Bx42	1	21265	23990		949	1364	active
47	CheB53a (Chemosensory protein B 53a)	1	74352	58964		1926	4438	inactive
48	CG11726	1	56889	53578	48102	5781	3028	inactive
49	fwe (flower)	1	4.20e5			9184		inactive
50	fwe (flower)	2	1.21e5	79168		4720	2883	inactive
51	CG30429	1	99962	2.21e5		2615	9552	inactive
52	SPE (Spatzle-Processing Enzyme)	1	1.22e5	78260		5149	3606	inactive
53	Pfdn5 (Prefoldin 5)	1	1.68e5	1.18e5		6212	5363	inactive
54	Ppox (Protoporphyrinogen oxidase)	1	5.37e5	88000		26806	2722	inactive
55	CG16956	1	76180	40903		2454	4660	inactive
56	CG31921	1	6.48e5	3.04e5		34162	11492	inactive
57	SMC6 (Structural maintenance of chromosomes 6)	1	7.35e5	1.62e5		37778	4491	inactive
58	CG3909	1	75184	1.30e5		2180	3028	inactive
59	CG43901	1	74902	1.84e5		1959	6349	inactive
60	CG43901	2	71128	89985		2440	4800	inactive
61	CG43901	3	1.23e5	7.56e5	3.52e5	3507	6272	inactive
62	Sys1 (Sys1 golgi trafficking protein)	1	1.04e5	1.32e5		3933	3752	inactive
63	Hecw (Hecw ubiquitin protein ligase)	1	61898	1.58e5		1548	5784	inactive
64	Hecw (Hecw ubiquitin protein ligase)	2	91610	2.63e5		2421	9484	inactive
65	Cyp305a1 (Cytochrome P450 305a1)	1	84675	49021		3019	1984	inactive
66	mspo (M-spondin)	1	1.02e5	55419		2346	3931	inactive
67	GstE7 (Glutathione S transferase E7)	1	1.12e5	1.07e5		5830	4611	inactive
68	CG6707	1	3021	44037	65209	3428	4586	inactive
69	CG1674	1	4.49e5	2.00e5		20674	4104	inactive
70	CG1674	2	86101	1.84e5		2151	7152	inactive
71	CG14369	1	73575	74620		2389	2295	inactive
72	Galk (Galactokinase)	1	99347	70235		4471	3024	inactive
73	prom (prominin)	1	87128	41763		1808	3398	inactive
